Data taken from publication PMC7819943, “Rice protein-binding microarrays: a tool to detect cis-acting elements near promoter regions in rice”.
The list shows a part of the results.

molecular target: T1, OsSMF1 (Oryza sativa, UniProt Q6ZLB0 1-436); test: protein-binding microarray (RPBM); PBS, 2% BSA, 51.3 ng/ul salmon testes DNA, 50 uM zinc acetate, 200 nM TF, 25 C, 1 h; high values mean tight binding; conditions: protein: recombinant; tags: N-terminal polyhistidine and DsRed monomer fusion (pET32a); chain copies: 2; label: CyDye5-dUTP incorporated in the synthesized complementary strand; 3' TTTTT single-stranded linker to array surface; dsDNA, one strand shown
T1 sequence: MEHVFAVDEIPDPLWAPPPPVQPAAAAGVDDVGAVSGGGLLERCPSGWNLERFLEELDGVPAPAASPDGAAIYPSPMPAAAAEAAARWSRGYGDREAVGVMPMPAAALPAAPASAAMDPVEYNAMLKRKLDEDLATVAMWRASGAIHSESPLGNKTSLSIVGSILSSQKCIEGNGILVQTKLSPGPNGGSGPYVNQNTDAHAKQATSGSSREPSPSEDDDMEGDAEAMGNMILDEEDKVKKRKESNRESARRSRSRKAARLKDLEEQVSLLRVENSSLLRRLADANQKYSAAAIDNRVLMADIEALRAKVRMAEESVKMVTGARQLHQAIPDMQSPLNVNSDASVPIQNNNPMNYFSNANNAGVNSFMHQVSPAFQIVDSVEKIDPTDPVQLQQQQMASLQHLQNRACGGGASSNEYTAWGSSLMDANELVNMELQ
Method in brief: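 In PBS with 2% BSA, salmon testes DNA and 50 µM zinc acetate, 200 nM protein was incubated on a custom Agilent array at 25 °C for 1 h and then washed off. The array had been made double-stranded by primer extension with Cy5-dUTP and blocked with 2% BSA. The proteins were transcription factors fused N-terminally to polyhistidine and DsRed, expressed in E. coli BL21-CodonPlus and purified on Ni–NTA. The binding signal is per-feature fluorescence intensity (arbitrary units) from an Axon 4000B scanner.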

Sequence | binding signal
TTGGCGTCCGCGCTGGTGACGTTGGCACTGGCGTAGGCGCCGGAGTCACCTAGTGCAG | 9280 fluorescence intensity (a.u.)
GATTAGCTTGTGTCATTCGCTAGAATAGAATGATGTGGTTCGGAGTCACCTAGTGCAG | 5210 fluorescence intensity (a.u.)
GAGTCCGGCGTGATGCCGTGATGACGCCGCAACGCGGCATCGGAGTCACCTAGTGCAG | 9060 fluorescence intensity (a.u.)
ATCTACTGATTTACAACCTCCTTAATTAACAAGCACGGGTCGGAGTCACCTAGTGCAG | 24600 fluorescence intensity (a.u.)
GTCGGAGCTCCTGTCGGCGCGTCGCGTCGCCACGTACGGCCGGAGTCACCTAGTGCAG | 8050 fluorescence intensity (a.u.)
TCCCTCCTCTTCCACGTCCGCGCAGCCGGCTCCCTCCACACGGAGTCACCTAGTGCAG | 7740 fluorescence intensity (a.u.)
GATTCCTGCTGGCAATAACACACTATGATATCTGCGACCACGGAGTCACCTAGTGCAG | 4120 fluorescence intensity (a.u.)
GGCTTTGGGGATTGGATATCCGAGGCCGTCGATGACGTGGCGGAGTCACCTAGTGCAG | 34300 fluorescence intensity (a.u.)
GACCTCCGCTGGGGTGGGTCCACCAACAGGCAACGCATACCGGAGTCACCTAGTGCAG | 6040 fluorescence intensity (a.u.)
GCCTAGGTCTACAGTTCACTCGCTATCCACGCACAGCCCGCGGAGTCACCTAGTGCAG | 3350 fluorescence intensity (a.u.)
GCATGCTAATTAAAGTGTTCGTTGCTGTTTCGTCGCATGCCGGAGTCACCTAGTGCAG | 4710 fluorescence intensity (a.u.)
CAAGATATGCGTTTGTGCCTTCATGGGTGAGTCCACGCGTCGGAGTCACCTAGTGCAG | 3850 fluorescence intensity (a.u.)
TGCATGCTTGCCGCTAGGCGCTGACTGGTGACGCCTGTTGCGGAGTCACCTAGTGCAG | 6350 fluorescence intensity (a.u.)
CTATAGGCTCTCTACAAGAGATCTATGTCAGCATATTTTCCGGAGTCACCTAGTGCAG | 6250 fluorescence intensity (a.u.)
AAATTCAGCATTCCTGGTTCAGCTTAATGCTTTGCTTACGCGGAGTCACCTAGTGCAG | 4100 fluorescence intensity (a.u.)
CATTATGCATCTTCTATTCCTGACTTCATTGACTGGTCTCCGGAGTCACCTAGTGCAG | 3250 fluorescence intensity (a.u.)
GCGTCTCTACTCCTCTCCCTGCATCTGGTATACGTATCTTCGGAGTCACCTAGTGCAG | 3170 fluorescence intensity (a.u.)
GTCCAACTCTTATCAACCGATTCATGGACACTTTAAATGTCGGAGTCACCTAGTGCAG | 3230 fluorescence intensity (a.u.)
CATGCGCCCACCTACATGTGAGCATGTGTATTGTCCTGAACGGAGTCACCTAGTGCAG | 3390 fluorescence intensity (a.u.)
GAGCCTTGAATATATCGTGGACCATGTTGGAGCAGAAAATCGGAGTCACCTAGTGCAG | 3470 fluorescence intensity (a.u.)
AAAGAATGACGATATGATGTGAGAAGTTTGTGAAGACTTGCGGAGTCACCTAGTGCAG | 41100 fluorescence intensity (a.u.)

Sequence | binding signal
AGGCGAGCGAGGCGGGTGGGCGGGGAGCGAACCAACGACGCGGAGTCACCTAGTGCAG | 4420 fluorescence intensity (a.u.)
TTGAGAAAGGTTCTAGCGGATGAAGATTCTAGAAGAAGCTCGGAGTCACCTAGTGCAG | 30600 fluorescence intensity (a.u.)
CCCGGTGTGTCACCGGTCTATAAGAGACCCCTGTACTCCTCGGAGTCACCTAGTGCAG | 3640 fluorescence intensity (a.u.)
AAAGTAAGATATTTATACTGTCCTTCCATACTTGTGACGTCGGAGTCACCTAGTGCAG | 3650 fluorescence intensity (a.u.)
GACGTGTTCCTCTGCAACGTCATGCTCGCTGCGTACGTCTCGGAGTCACCTAGTGCAG | 8520 fluorescence intensity (a.u.)
CCAGTATATGTGTATGTGTGCTTACCAGTGTTTTAAATCGCGGAGTCACCTAGTGCAG | 3620 fluorescence intensity (a.u.)
GCTCGTCGTCGCCACCTCACCACCACACACGCGCAGCCAACGGAGTCACCTAGTGCAG | 5390 fluorescence intensity (a.u.)
TCATCAAGTGACTAAATTCGGCCACCTCACCATCGTACCACGGAGTCACCTAGTGCAG | 5870 fluorescence intensity (a.u.)
ACAGGCATTAGCCAAAGGTCCTTGTCACTGAGTAAGTGGGCGGAGTCACCTAGTGCAG | 3720 fluorescence intensity (a.u.)
GAGCGGCCAAACCCTCGACAAGCATCGTCAGCAGCAGCAGCGGAGTCACCTAGTGCAG | 3340 fluorescence intensity (a.u.)
TGTCCTCTAATTTCGTTTTGCACTCGCTTTCCACCGCTACCGGAGTCACCTAGTGCAG | 30400 fluorescence intensity (a.u.)
ACGTATAGAGATACATACACCGATACACGTACGTACGTACCGGAGTCACCTAGTGCAG | 5340 fluorescence intensity (a.u.)
TGGCCACGTCTCAATCTCTCTCTCTCGCGCTCTCCTCTCCCGGAGTCACCTAGTGCAG | 4650 fluorescence intensity (a.u.)
AGGGAGGGCGCAACGTGTGGGTGATCGTGCATTAGCGCTCCGGAGTCACCTAGTGCAG | 3150 fluorescence intensity (a.u.)
TCAAGCGCAGACGCGTGGTGTGGTTGTATTTTCCTTTTCCCGGAGTCACCTAGTGCAG | 4200 fluorescence intensity (a.u.)
GGTGTGGCGCTGCAGTGTTTTGATACGTGGAAATTGTCCGCGGAGTCACCTAGTGCAG | 3280 fluorescence intensity (a.u.)
TTTACGTGATCCTCTTTTCCTCAGAGGCTCAGACGTCAGTCGGAGTCACCTAGTGCAG | 3280 fluorescence intensity (a.u.)
ATCTCCATCTGGCGAGCAGAGGCCGGGGAGGGAGGGGCGCCGGAGTCACCTAGTGCAG | 3870 fluorescence intensity (a.u.)
GGGTCCTATGCTGACTCAGCAGCCACGTAGGATAAAACCGCGGAGTCACCTAGTGCAG | 32800 fluorescence intensity (a.u.)
TCTCCGAAACATTACGTGGTATGCATGTTAGAGCAGGTACCGGAGTCACCTAGTGCAG | 4120 fluorescence intensity (a.u.)
CCTCAAGGACAAATGATTGATTTACCTATTCAAAGCAATTCGGAGTCACCTAGTGCAG | 23300 fluorescence intensity (a.u.)

Copied from the list.
binding signal with ATCTCCATCTGGCGAGCAGAGGCCGGGGAGGGAGGGGCGCCGGAGTCACCTAGTGCAG reads 3870 fluorescence intensity (a.u.)
binding signal with TGTCCTCTAATTTCGTTTTGCACTCGCTTTCCACCGCTACCGGAGTCACCTAGTGCAG reads 30400 fluorescence intensity (a.u.)
